We go through 36 compounds from the supplement of paper PMC12462457.

Structures are written as SMILES. ± gives the standard deviation of the averaged measurements. Some of the results follow. Repeats in this data set agree poorly, so a single value says little.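 Cells were counted by imaging DAPI-stained nuclei, and cells lacking phalloidin-stained cytoplasm were excluded as dead. Each well's count was divided by the median count of the vehicle wells on the same plate, and values were averaged over two replicate plates.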

The subject of this assay is OVCAR8. Kind of assay: cell count relative to DMSO vehicle (fold change); higher = more surviving senescent cells (less killing). The settings on record: senescence inducer: cisplatin 10 µM 48 h, then 6 d recovery (CP senescent), exposure time 24 h.

`COc1cc2ccc(=O)oc2c(O)c1O` [Fraxetin]: the cell count runs as follows: (compound dose 1 µM) 0.938 ± 0.15; (compound dose 5 µM) 0.694 ± 0.19.
The corresponding values for `CCOC(=O)C1=C(C)NC(=S)NC1c1cccc(O)c1` (configuration not stated) [Monastrol] are 0.8615 ± 0.0078 and 0.879 ± 0.25.
Taken in the same sequence, the figures for `CC(C)(C)c1cc(NC(=O)Nc2ccc(-c3cn4c(n3)sc3cc(OCCN5CCOCC5)ccc34)cc2)no1` [Quizartinib (AC220)] were 1 ± 0.064 and 0.903 ± 0.17.
For `CN1CCN(c2ccc(-c3cccc(CN4CCOCC4)c3)cc2NC(=O)c2c[nH]c(=O)cc2C(F)(F)F)CC1`, the cell count was determined as 0.942 ± 0.098 (compound dose 1 µM) and 0.894 ± 0.15 (compound dose 5 µM).
Taken in the same sequence, the figures for `CC1(C)Cc2c(-c3ccccc3)c(-c3ccc(Cl)cc3)c(CC(=O)O)n2C1` [Licofelone] were 0.818 ± 0.16 and 0.804 ± 0.075.
Consider `CCOC(=O)/C=C(C)/C=C/C=C(C)/C=C/c1c(C)cc(OC)c(C)c1C` [Etretinate], for which the cell count reads like this: (compound dose 1 µM) 0.77 ± 0.19; (compound dose 5 µM) 0.809 ± 0.043.
Taken in the same sequence, the figures for `COc1ccc(S(=O)(=O)Nc2cc(-c3csc(C#N)c3)ccc2C)cc1` were 0.694 ± 0.017 and 0.458 ± 0.17.
Taken in the same sequence, the figures for `O=c1c(O)c(-c2ccc(O)cc2)oc2cc(O)cc(O)c12` were 0.939 ± 0.086 and 0.666 ± 0.2.
Taken in the same sequence, the figures for `CCCc1ccc(OCC(=O)N(Cc2nc(-c3cccnc3)no2)C(C)C)cc1` were 0.768 ± 0.47 and 0.99 ± 0.099.
Consider `CC#CCn1c(N2CCC[C@@H](N)C2)nc2c1c(=O)n(Cc1nc(C)c3ccccc3n1)c(=O)n2C` [Linagliptin], for which the cell count runs as follows: (compound dose 1 µM) 0.867 ± 0.06; (compound dose 5 µM) 0.525 ± 0.29.
On to `C[C@@H]1CC[C@@]2(OC1)O[C@H]1C[C@H]3[C@@H]4CC=C5C[C@@H](O[C@@H]6O[C@H](CO)[C@@H](O[C@@H]7O[C@@H](C)[C@H](O[C@@H]8O[C@@H](C)[C@H](O)[C@@H](O)[C@H]8O)[C@@H](O)[C@H]7O)[C@H](O)[C@H]6O[C@@H]6O[C@@H](C)[C@H](O)[C@@H](O)[C@H]6O)CC[C@]5(C)[C@H]4CC[C@]3(C)[C@@]1(O)[C@@H]2C` [Paris saponin VII], for which the cell count turned out to be 0.942 ± 0.023 (compound dose 1 µM) and 0.0415 ± 0.05 (compound dose 5 µM).
Taken in the same sequence, the figures for `CC(C)(CO)[C@@H](O)C(=O)NCCC(=O)O` [D-Pantothenic acid (sodium)] were 1.21 ± 0.051 and 1.201 ± 0.0014.
The corresponding values for `CC[C@@H]1C(=O)N(C)c2cnc(Nc3ccc(C(=O)N[C@H]4CC[C@H](N5CCN(CC6CC6)CC5)CC4)cc3OC)nc2N1C(C)C` [Volasertib] are 0.815 ± 0.027 and 0.686 ± 0.0085.
In turn, `C=C1C(=O)O[C@@]23[C@H]1CC[C@@H](C)[C@@H]2CC[C@@]1(C)O[C@@H]31` [Arteannuin B] came in with a cell count (compound dose 1 µM) of 0.655 ± 0.042 and a cell count (compound dose 5 µM) of 0.945 ± 0.061.
Taken in the same sequence, the figures for `Cc1nc(C(=O)NCC(=O)O)c(O)c2ccc(Oc3ccccc3)cc12` [Roxadustat (FG-4592)] were 0.984 ± 0.076 and 0.88 ± 0.034.
Take `O=C(Nc1cnn2ccc(N3CCC[C@@H]3c3cc(F)ccc3F)nc12)N1CC[C@H](O)C1` [Larotrectinib]: the cell count by setting is: (compound dose 1 µM) 0.903 ± 0.025; (compound dose 5 µM) 0.894 ± 0.13.
Taken in the same sequence, the figures for `CC[C@H](NC(=O)[C@H](C)NC)C(=O)N1C[C@@H](O)C[C@H]1Cc1c(-c2[nH]c3cc(F)ccc3c2C[C@@H]2C[C@H](O)CN2C(=O)[C@H](CC)NC(=O)[C@H](C)NC)[nH]c2cc(F)ccc12` [Birinapant] were 0.371 ± 0.013 and 0.216 ± 0.08.
The corresponding values for `CN1C(=O)N[C@H](Cc2c[nH]c3c(Cl)cccc23)C1=O` [Necrostatin 2] are 1.31 ± 0.15 and 1.5 ± 0.36.
With `O=C(O)Cn1nnc(-c2ccc(CN(CCCCOc3ccc(CN4CCCC4)cc3)CCc3ccccc3)cc2)n1`, the cell count is, setting by setting: (compound dose 1 µM) 0.927 ± 0.03; (compound dose 5 µM) 1.13 ± 0.013.
As to `O=C(O)C1=CC(=C(c2ccc(O)c(C(=O)O)c2)c2ccc(O)c(C(=O)O)c2)C=CC1=O` [Aurintricarboxylic acid], the cell count was 0.993 ± 0.095 (compound dose 1 µM) and 0.767 ± 0.024 (compound dose 5 µM).
Taken in the same sequence, the figures for `CC1=NN(c2ccc(C)c(C)c2)C(=O)/C1=N\Nc1cccc(-c2cccc(C(=O)O)c2)c1O` [Eltrombopag] were 1.1 ± 0.0099 and 0.831 ± 0.21.
The corresponding values for `COc1ccc(-c2cc(=O)c3c(O)c(OC)c(OC)c(OC)c3o2)cc1` are 0.864 ± 0.05 and 0.853 ± 0.05.
Taken in the same sequence, the figures for `CCCCCCCC/C=C/CCCCCCCC(=O)OC[C@H]1O[C@@H](n2ccc(N)nc2=O)C(F)(F)[C@@H]1O` [Gemcitabine (elaidate)] were 0.957 ± 0.0071 and 1.17 ± 0.04.
Regarding `Cc1cc(/C=C2\CC/C(=C\c3cc(C)c(O)c(C)c3)C2=O)cc(C)c1O` [Pentagamavunon-1], the cell count by setting is: (compound dose 1 µM) 0.937 ± 0.054; (compound dose 5 µM) 0.717 ± 0.36.
As for `CCCOc1ccc2[nH]c(NC(=O)OC)nc2c1`, the cell count by setting is: (compound dose 1 µM) 1 ± 0.061; (compound dose 5 µM) 0.718 ± 0.045.
Taken in the same sequence, the figures for `C[C@]12C=CC(=O)N[C@@H]1CC[C@@H]1[C@@H]2CC[C@]2(C)[C@@H](C(=O)Nc3cc(C(F)(F)F)ccc3C(F)(F)F)CC[C@@H]12` [Dutasteride] were 0.806 ± 0.025 and 0.816 ± 0.078.
Turning to `COc1ccc(-c2nc(N3CCOCC3)c3sc(CN(C)c4ncc(C(=O)NO)cn4)cc3n2)cn1`, the cell count by setting is: (compound dose 1 µM) 0.261 ± 0.033; (compound dose 5 µM) 0.182 ± 0.033.
The corresponding values for `O=C(Nc1ccccc1-c1cn2c(CN3CC[C@@H](O)C3)csc2n1)c1ccc2ccccc2c1` are 0.9205 ± 0.0092 and 1.02 ± 0.053.
In the case of `Cc1cnc(Nc2ccc(OCCN3CCCC3)cc2)nc1Nc1cccc(S(=O)(=O)NC(C)(C)C)c1`, the cell count by setting is: (compound dose 1 µM) 1.1 ± 0.044; (compound dose 5 µM) 0.314 ± 0.16.
Take `c1ccc2c(CCNc3ccc(Nc4ccncc4)cc3)c[nH]c2c1` [Serdemetan]: the cell count worked out at 1.22 ± 0.067 (compound dose 1 µM) and 0.728 ± 0.0071 (compound dose 5 µM).
Turning to `COc1ccc(/C=C/c2cc(O)cc(O[C@@H]3O[C@H](CO)[C@@H](O)[C@H](O)[C@H]3O)c2)cc1` [Desoxyrhaponticin], the cell count came out at 1.15 ± 0.099 (compound dose 1 µM) and 0.831 ± 0.36 (compound dose 5 µM).
Consider `O=C(/C=C/c1ccc(O)c(O)c1)O[C@@H]1C[C@@](O)(C(=O)O)C[C@@H](O)[C@@H]1O` [Neochlorogenic acid], for which the cell count runs as follows: (compound dose 1 µM) 1.111 ± 0.005; (compound dose 5 µM) 1.34 ± 0.067.
The corresponding values for `C=C1C(=O)O[C@@H]2C[C@@]3(C)CCCC(=C)[C@@H]3C[C@H]12` [Isoalantolactone] are 0.953 ± 0.25 and 0.966 ± 0.1.
The corresponding values for `CC(C)[C@@H](C)[C@@H](O)[C@H](O)[C@@H](C)[C@H]1CC[C@H]2[C@@H]3COC(=O)[C@H]4C[C@H](O)[C@H](O)C[C@]4(C)[C@H]3CC[C@]12C` [Epibrassinolide] are 1.04 ± 0.22 and 1.03 ± 0.012.
The corresponding values for `O=[N+]([O-])c1ccc(SCCCCCCO)c2nonc12` are 0.705 ± 0.075 and 0.05 ± 0.024.
In the case of `COc1ccc(Cl)cc1NC(=O)Nc1cc(C)nc2ccccc12`, the cell count amounted to 0.921 ± 0.2 (compound dose 1 µM) and 0.735 ± 0.23 (compound dose 5 µM).
